Laboratory results: PubChem BioAssay AID1259405 (NCATS, 2018)
The whole screen tested about 50,000 reagents; shown is a part drawn at random. In the full data, about 4,000 (8%) were called active. 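Mouse siRNA library applied to hamster cells; one well for each siRNA.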 Unmarked entries are inactive. The numbers tell different reagents against one gene apart. Not all columns of the deposit are shown.

- Test: 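Silenced genes that increase secreted GFP made by CHO cells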 (primary screen)
- Cell system: Chinese hamster CHO-K1 ovary cells with stable secreted eGFP expression
- Knock-down reagent: single siRNA against mouse genes, 0.8 pmol siRNA per well (2 µl of 400 nM stock)
- Duration: 3 days
- Measurement: 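Percent of the per-plate non-targeting control median for intracellular GFP per well by laser scanning cytometry and for cell viability by ATP luminescence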
- Direction: GFP, % of control: higher = more GFP per well, higher productivity
- Active means: 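Called active when intracellular GFP, relative to negative control, is at or above 120%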

GFP, % of control, by target and reagent
Mob3a (GeneID 208228): #1 86.3; #2 85.3
Asb8 (GeneID 78541): #1 94.8; #2 91.6; #3 85.4
Zfp65 (GeneID 235907): #1 47; #2 61.9; #3 116
Wdr1 (GeneID 22388): #1 78.1; #2 59.9; #3 68.1
Il1rap (GeneID 16180): #1 136 (active); #2 52.2; #3 76.4
Tspan7 (GeneID 21912): #1 56.5; #2 54.5; #3 75.3
Nat8f3 (GeneID 93674): #1 108; #2 62; #3 40.9
2310057M21Rik (GeneID 68277): #1 79.4; #2 39.5; #3 70.1
Glt8d2 (GeneID 74782): #1 125 (active); #2 86.4
Cpxm1 (GeneID 56264): #1 58.1; #2 53.9; #3 43.9
Ndufaf7 (GeneID 73694): #1 56.4; #2 60.8; #3 83.6
Il1rl1 (GeneID 17082): #1 53.2; #2 86.6; #3 89.6
Cwc15 (GeneID 66070): #1 52.7; #2 70.9; #3 62.3
A430072C10Rik (GeneID 319637): #1 73.3; #2 104; #3 67.2
Cope (GeneID 59042): #1 96.8; #2 67.4; #3 88.8
Slc22a5 (GeneID 20520): #1 48.9; #2 25.6; #3 85.7
Pgm2 (GeneID 66681): #1 100; #2 61.7; #3 88.1
Glrx2 (GeneID 69367): #1 71.4; #2 110; #3 85.2
Strip2 (GeneID 320609): #1 58.5; #2 65.6; #3 55.5
Or10d4 (GeneID 258087): #1 38.4; #2 64.7; #3 63.8
Nckap5l (GeneID 380969): #1 29.6; #2 43.3; #3 68.8
Xpo7 (GeneID 65246): #1 78.9; #2 68.2; #3 79.9
Tas2r118 (GeneID 387347): #1 66; #2 88.6; #3 78.1
Ghr (GeneID 14600): #1 54; #2 69; #3 32.8
Ncam1 (GeneID 17967): #1 45; #2 44.3; #3 105
Kcnh3 (GeneID 16512): #1 107; #2 121 (active); #3 85.4
Vmn1r229 (GeneID 171224): #1 60; #2 92.3; #3 52.3
Or4c125 (GeneID 258974): #1 91.7; #2 63.5; #3 19.4
Dek (GeneID 110052): #1 59.8; #2 140 (active); #3 71.9

Reagents listed so far with an active call (4):
GFP, % of control, by target and reagent
Il1rap (GeneID 16180): #1 136 (active)
Glt8d2 (GeneID 74782): #1 125 (active)
Kcnh3 (GeneID 16512): #2 121 (active)
Dek (GeneID 110052): #2 140 (active)
